This is an account of results in the supplement of paper PMC10373366.

Counter-ions that a name gives are not always drawn. This is one part of the list. Repeats are few or missing, and single values can be far off.

The test system of the assay is patient-derived ovarian cancer cells (PDC). Put plainly: cell growth inhibition ratio vs untreated control (CCK8); higher = stronger inhibition of cell viability. As to conditions: 10 µM; 48 h. Here is the method:
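Natural product library (Topscience) screened at 10 µM final concentration for 48 h on ovarian cancer A2780 cells and patient-derived ovarian cancer cells (PDC) in 96-well plates; viability read by CCK8 and reported as inhibition ratio (%) relative to untreated control. Single-dose primary screen.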
For `CC(C)=CCC[C@]1(C)C=Cc2c(O)c3c(c(CC=C(C)C)c2O1)O[C@]12C(=C[C@@H]4C[C@H]1C(C)(C)O[C@@]2(C/C=C(/C)C(=O)O)C4=O)C3=O` [Gambogic Acid], the “cell growth inhibition ratio” value was -5.65%.

As to `O=c1ccc2cc(O[C@@H]3O[C@H](CO)[C@@H](O)[C@H](O)[C@H]3O)c(O)cc2o1` [Esculin], the “cell growth inhibition ratio” value is 6.69%.

Take `CC1C(=O)OC2C(O)C34C5OC(=O)C3(OC3OC(=O)C(O)C34C(C(C)(C)C)C5O)C12O` (configuration not stated) [Ginkgolide C]: the “cell growth inhibition ratio” value came to 5.69%.

`CC(C)[C@]12O[C@H]1[C@@H]1O[C@]13[C@]1(O[C@H]1C[C@H]1C4=C(CC[C@@]13C)C(=O)OC4)[C@@H]2O` [Triptolide (PG490)]: the “cell growth inhibition ratio” value was 87.3%.

Turning to `CN(C)CCc1ccc(O)cc1` [Hordenine], the “cell growth inhibition ratio” value worked out at 10.1%.

With `CC(=O)OCC1=C(C(=O)O)N2C(=O)[C@@H](N)[C@H]2SC1` [7-Aminocephalosporanic acid], the “cell growth inhibition ratio” value was -0.129%.

On to `C#C[C@]1(O)CC[C@H]2[C@@H]3CCC4=CC(=O)CC[C@]4(C)[C@H]3CC[C@@]21C` [Ethisterone], for which the “cell growth inhibition ratio” value is 2.43%.

With `CC1=C2C[C@H]3[C@@H](CC=C4C[C@@H](O)CC[C@@]43C)[C@@H]2CC[C@]12O[C@@H]1C[C@H](C)CN[C@H]1[C@H]2C` [Cyclopamine], the “cell growth inhibition ratio” value came to 14.1%.

For `O=C1CCC[C@@H]2[C@H]3CCCN4CCC[C@H](CN12)[C@@H]34` [Sophoridine], the “cell growth inhibition ratio” value is 3.97%.

Turning to `Cc1c([C@H](C)[C@@H]2NC[C@@H](C)C[C@H]2O)ccc2c1C[C@H]1[C@H]2CC=C2C[C@@H](O)CC[C@@]21C` [Veratramine], the “cell growth inhibition ratio” value stood at 18.5%.

For `COc1cc(C2OCC3C(c4cc(OC)c(O[C@@H]5O[C@H](CO)[C@@H](O)[C@H](O)[C@H]5O)c(OC)c4)OCC23)cc(OC)c1O[C@H]1O[C@@H](CO)[C@H](O)[C@@H](O)[C@@H]1O` (some centres not stated) [Eleutheroside E], the “cell growth inhibition ratio” value is -14%.

Take `O=C1CCC[C@@H]2[C@H]3CCCN4CCC[C@@H](CN12)[C@@H]34` [(+)-Matrine]: the “cell growth inhibition ratio” value came out at 1.71%.

As for `Cc1nccc2c1[nH]c1ccccc12` [Harmane], the “cell growth inhibition ratio” value is 10.9%.

Take `COc1ccc2c(c[n+](C)c3c4cc5c(cc4ccc23)OCO5)c1OC` [Chelerythrine chloride]: the “cell growth inhibition ratio” value came out at 35.3%.

For `CCN1C[C@]2(COC)[C@H](O)C[C@H](OC)[C@@]34[C@@H]5C[C@@]6(O)[C@H](OC(=O)c7ccccc7)[C@@H]5[C@@](OC(C)=O)([C@@H]([C@H](OC)[C@H]23)[C@@H]14)[C@@H](O)[C@@H]6OC` [Aconitine], the “cell growth inhibition ratio” value worked out at 6.21%.

With `CC(C)=CCC[C@@](C)(O)[C@H]1CC[C@]2(C)[C@@H]1[C@H](O)C[C@@H]1[C@@]3(C)CC[C@H](O)C(C)(C)[C@@H]3[C@@H](O[C@@H]3O[C@H](CO)[C@@H](O)[C@H](O)[C@H]3O)C[C@]12C` [(20R)-Ginsenoside Rh1], the “cell growth inhibition ratio” value was -7.86%.

For `C/C=C/c1cc(OC)c(OC)cc1OC` [alpha-Asarone], the “cell growth inhibition ratio” value is -0.023%.

With `C/C=C/C#CC#C/C=C/c1ccco1` [Atractylodin], the “cell growth inhibition ratio” value was 7.82%.

For `NCC(O)c1ccc(O)cc1` (configuration not stated) [Octopamine hydrochloride], the “cell growth inhibition ratio” value was determined as 8.71%.

As for `CN1CCc2cc3c(cc2C1C1OC(=O)c2c1ccc1c2OCO1)OCO3` (single isomer, unassigned; (+)) [(+)-Bicuculline], the “cell growth inhibition ratio” value stood at 5.62%.

In the case of `CN1[C@@H]2C[C@@H](OC(=O)[C@H](CO)c3ccccc3)C[C@H]1[C@@H]1O[C@@H]12` [Scopolamine HBr trihydrate], the “cell growth inhibition ratio” value was determined as 5.68%.

Regarding `CC1C=CC=CCCC=CC=CC=CC=CC(OC2OC(C)C(O)C(N)C2O)CC2OC(O)(CC(O)C(O)CCC(O)CC(O)CC(O)CC(=O)OC(C)C(C)C1O)CC(O)C2C(=O)O` (configuration not stated) [Nystatin (Fungicidin)], the “cell growth inhibition ratio” value worked out at 4.56%.

Consider `COc1cc([C@@H]2c3cc4c(cc3[C@H](O)[C@H]3COC(=O)[C@@H]23)OCO4)cc(OC)c1OC` [Picropodophyllin (PPP)], for which the “cell growth inhibition ratio” value stood at 50.7%.

Turning to `Cc1cc2c(C(C)C)c(O)c(O)c(C=O)c2c(O)c1-c1c(C)cc2c(C(C)C)c(O)c(O)c(C=O)c2c1O` [Gossypol acetic acid], the “cell growth inhibition ratio” value came to 71.5%.

On to `CCC(=O)O[C@H]1CC[C@H]2[C@@H]3CCC4=CC(=O)CC[C@]4(C)[C@H]3CC[C@]12C` [Testosterone propionate], for which the “cell growth inhibition ratio” value was found to be 8.74%.

With `CN1[C@@H]2CC[C@H]1C[C@@H](OC(=O)[C@H](CO)c1ccccc1)C2` [L-Hyoscyamine], the “cell growth inhibition ratio” value was -10.8%.

Turning to `C1=C2CCCN[C@H]2[C@@H]2C[C@H]1[C@H]1CCCCN1C2` [Aloperine], the “cell growth inhibition ratio” value was found to be 3.42%.
